Data reported in patent publication US4673674A, “Diazepinoindoles useful for treating depression, schizophrenia, social withdrawal or anxiety and pharmaceutical compositions containing them” (Sandoz Pharmaceuticals Corp., priority 1984, dated 1987).

The chains behind the UniProt entries cited, without tags or fusion partners.
UniProt P20288, whole entry: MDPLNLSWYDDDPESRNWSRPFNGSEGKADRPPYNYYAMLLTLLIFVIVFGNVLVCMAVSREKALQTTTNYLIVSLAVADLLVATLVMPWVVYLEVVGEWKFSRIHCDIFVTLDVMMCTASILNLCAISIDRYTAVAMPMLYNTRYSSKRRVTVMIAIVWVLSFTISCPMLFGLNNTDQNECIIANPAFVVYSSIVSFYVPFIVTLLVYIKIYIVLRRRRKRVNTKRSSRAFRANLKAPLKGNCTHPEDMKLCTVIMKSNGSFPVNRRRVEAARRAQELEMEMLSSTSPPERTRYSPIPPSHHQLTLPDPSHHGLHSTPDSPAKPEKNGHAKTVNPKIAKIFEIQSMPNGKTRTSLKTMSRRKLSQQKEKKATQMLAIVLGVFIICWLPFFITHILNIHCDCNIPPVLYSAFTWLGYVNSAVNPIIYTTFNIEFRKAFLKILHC

Biological target: T1, 3H-spiperone binding sites in the brain (calf brain striatal tissue) (Bos taurus, UniProt P20288)
T1 construct: fresh calf brain striatal tissue was homogenized; from tissue; host or cells: calf brain striatal membranes
Experiment: inhibition of specific 3H-spiperone binding in calf brain striatal tissue

**Q.** With `CSc1ccc2c(c1)N(CCC1CCCCN1C)c1ccccc1S2` (stereo not shown) [thioridazine, reference compound] as the compound, how does the IC50 read?
**A.** 33 nM
